Measurements reported in PubChem BioAssay AID1259293 (Sanger Institute, 2017)
The whole screen tested 160 reagents; below is a random part of them. Of all reagents, 46 (29%) were called active. 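The method behind the synergy score is not described; each call refers to one siRNA in a single cell line.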 A number with no mark means an inactive call. Reagents against one gene are numbered here. Further read-outs or replicates are left out here. The record does not give: the amount of reagent, the time to read-out.

Screen: 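Follow-up of kinase siRNAs for synthetic lethality with three anchor drugs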 (follow-up of hits)
Cell system: human NCI-H716 colorectal cancer cells
Knock-down reagent: single siRNA against human genes
Conditions: anchor drugs BYL719 at 1 µM, cetuximab at 5 µg/ml or trametinib at 10 nM, or DMSO vehicle alone
Read-out: 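For every anchor drug, viability versus control pool 2 (non-targeting) and a synergy score of drug with siRNA, each a replicate average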
Direction: synergy score with BYL719 and synergy score with cetuximab and synergy score with trametinib: higher = stronger synthetic lethal effect with drug
Rule for the call: 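Hit when any single drug gives a synergy score greater than 0.10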
Calls: active = synergy with at least one drug; inactive = no synergy with any drug

Gene	siRNA no.	synergy score with BYL719	synergy score with cetuximab	synergy score with trametinib
CHD4 (chromodomain helicase DNA binding protein 4)	1	-0.206	-0.252	-0.0343
CHD4 (chromodomain helicase DNA binding protein 4)	2	0.0607	-0.0669	-0.00744
CHD4 (chromodomain helicase DNA binding protein 4)	3	-0.333	-0.322	-0.21
CHD4 (chromodomain helicase DNA binding protein 4)	4	-0.111	0.0897	-0.0419
GUCY2D (guanylate cyclase 2D, retinal)	1	-0.509	-0.173	-0.214
GUCY2D (guanylate cyclase 2D, retinal)	2	-0.157	-0.158	0.0701
GUCY2D (guanylate cyclase 2D, retinal)	3	-0.0374	-0.127	0.0208
GUCY2D (guanylate cyclase 2D, retinal)	4	-0.27	-0.208	-0.0196
KCNH8 (potassium voltage-gated channel subfamily H member 8)	1	-0.166	-0.121	0.0379
KCNH8 (potassium voltage-gated channel subfamily H member 8)	2	0.128 (active)	0.0788	0.0234
KCNH8 (potassium voltage-gated channel subfamily H member 8)	3	-0.295	0.0829	-0.0625
KCNH8 (potassium voltage-gated channel subfamily H member 8)	4	-0.0282	-0.264	-0.158
RPS6KA4 (ribosomal protein S6 kinase A4)	1	-0.17	0.0634	-0.188
RPS6KA4 (ribosomal protein S6 kinase A4)	2	-0.133	-0.109	-0.0637
RPS6KA4 (ribosomal protein S6 kinase A4)	3	-0.133	-0.0625	-0.292
RPS6KA4 (ribosomal protein S6 kinase A4)	4	0.137 (active)	-0.034	0.0106
MARK3 (microtubule affinity regulating kinase 3)	1	-0.179	-0.109	0.0124
MARK3 (microtubule affinity regulating kinase 3)	2	-0.0468 (active)	-0.0834	0.225
MARK3 (microtubule affinity regulating kinase 3)	3	-0.193	-0.263	-0.0255
MARK3 (microtubule affinity regulating kinase 3)	4	-0.612	-0.461	-0.077
BRAF (B-Raf proto-oncogene, serine/threonine kinase)	1	-0.25	-0.152	-0.0761
BRAF (B-Raf proto-oncogene, serine/threonine kinase)	2	0.0856	-0.243	-0.148
BRAF (B-Raf proto-oncogene, serine/threonine kinase)	3	0.0983	-0.0268	0.0931
BRAF (B-Raf proto-oncogene, serine/threonine kinase)	4	-0.131	-0.143	-0.0461
COASY (Coenzyme A synthase)	1	0.222 (active)	-0.0114	-0.319
COASY (Coenzyme A synthase)	2	-0.0993	-0.047	-0.0176
COASY (Coenzyme A synthase)	3	-0.202 (active)	0.101	0.095
COASY (Coenzyme A synthase)	4	0.151 (active)	-0.073	0.0443
PIM1 (Pim-1 proto-oncogene, serine/threonine kinase)	1	0.0437 (active)	0.0515	0.16
PIM1 (Pim-1 proto-oncogene, serine/threonine kinase)	2	-0.173 (active)	-0.139	0.156
PIM1 (Pim-1 proto-oncogene, serine/threonine kinase)	3	-0.212	-0.267	-0.0835
PIM1 (Pim-1 proto-oncogene, serine/threonine kinase)	4	-0.0382	-0.0716	-0.203
CDK6 (cyclin dependent kinase 6)	1	0.0275	-0.0427	0.0875
CDK6 (cyclin dependent kinase 6)	2	-0.197	-0.21	-0.105
CDK6 (cyclin dependent kinase 6)	3	-0.179	-0.109	-0.107
CDK6 (cyclin dependent kinase 6)	4	-0.215	-0.324	0.0883

A stretch of the results above:
Gene	siRNA no.	synergy score with BYL719	synergy score with cetuximab	synergy score with trametinib
COASY (Coenzyme A synthase)	4	0.151 (active)	-0.073	0.0443
PIM1 (Pim-1 proto-oncogene, serine/threonine kinase)	1	0.0437 (active)	0.0515	0.16
PIM1 (Pim-1 proto-oncogene, serine/threonine kinase)	2	-0.173 (active)	-0.139	0.156
PIM1 (Pim-1 proto-oncogene, serine/threonine kinase)	3	-0.212	-0.267	-0.0835
